# In US10588946B2, “Peptide for promoting bone formation or inhibiting bone resorption and use thereof” (SEOUL NATIONAL UNIVERSITY R&DB FOUNDATION, priority 2015, dated 2020):
# “Also recorded” adds a separate entry of the source. At least one peptide structure holds a part that was inferred or is arguable (an end, a ring closure or a residue). Where no end group is shown, it is not given here.
# Columns and labels:
# osteogenic cells = assay: Cell spreading assay on coated plates; assay type: cell-based, human; conditions: serum-free medium, 3 hours
# Description: (§1) Plates were gently washed three times with PBS.
# FAK = FAK phosphorylation assay and western blotting; assay type: cell-based, human; conditions: osteogenic cells
# [1] = test system: NHEKs, NHOKs, NHDFs, NHOFs, PC-12, MC3T3-E1, CV-1, and NIH/3T3 cells; assay: Attachment of various cell types to VnP-16; assay type: cell-based; conditions: plates precoated with VnP-16 (9.1 μg/cm^2), 1 hour
# [2] = test system: IL-1-induced bone destruction in mice; assay: IL-1-induced mouse calvarial bone loss; assay type: in vivo
# [3] = test system: JNK-c-Fos-NFATc1 signaling pathway; assay: Immunoblot of osteoclastogenesis-related genes and MAPKs in BMMs; assay type: cell-based, mouse
# [4] = test system: bone marrow-derived macrophages (BMMs); assay: Osteoclast differentiation assay (TRAP staining); assay type: cell-based, mouse
# osteoclasts [5] = assay: F-actin-mediated cytoskeletal organization (rhodamine-phalloidin staining); assay type: cell-based, mouse; conditions: 9.1 μg/cm^2
# mature osteoclasts = assay: Bone resorption assay with mature osteoclasts; assay type: cell-based, mouse
# [6] = test system: rat models with critical-size calvarial defects; assay: Rat critical-size calvarial defect model; assay type: in vivo
# Procedure: For critical-size calvarial defects, 8-week-old male Sprague-Dawley rats (n=5 rats/group) were used. VnP-16 was dissolved in DDW and SP in DMSO (5 mg/mL) and then diluted with DDW. Absorbable collagen sponges (Bioland) were loaded with human recombinant BMP-2 (4 μg/cm^2, 15 μL volume; PeproTech), synthetic peptides (1 mg/cm^2 and 2 mg/cm^2, 15 μL volume), or vehicle (10 μL of DMSO and 5 μL of DDW). The surgical procedures for the creation of an 8 mm circular defect in the parietal bone and implantation of the collagen sponge were performed as described in the reference (Lee, J. H., et al., Biomaterials, 31, 3512 to 3519 (2010)). The rats were euthanized at 2 weeks after surgery, and whole calvaria were fixed in 4% paraformaldehyde at 4° C. for 24 hours and analyzed by μCT scanning. Details for the μCT scans are illustrated below.
# For histomorphometric analysis, the specimens were decalcified with 12% EDTA for 4 weeks and embedded in paraffin. The paraffin-embedded samples were sectioned at a thickness of 4 μm and stained with Masson's trichrome. To examine the effects of VnP-16 on IL-1-induced mouse calvarial bone loss, dried collagen sponges loaded with vehicle (DMSO), IL-1 (2 μg), synthetic peptides (SP and VnP-16; 125 μg), or synthetic peptides in conjunction with IL-1 were implanted over the calvarial bones of 5-week-old male ICR mice (n=5 per group). The mice were sacrificed on day 7, and the whole calvariae were dissected, cleaned of soft tissue, fixed in 4% paraformaldehyde at 4° C. for 24 hours, subjected to TRAP staining, and then analyzed by μCT scanning. μCT was performed with the Micro-CT Skyscan 1172 system (70 kV, 141 μA, and 38 minutes integration time; Skyscan). Scans were integrated into 3D voxel images (2000×1048 pixel matrices). Bone images were reconstructed by the NRecon version 1.6.9.8 program (Bruker-microCT). Blue pseudo color was overlaid on the μCT images to clarify the eroded surface of calvarial bones. The regenerated bone volume and bone mineral content were calculated with CT Analyser version 1.14.4.1 (Bruker-microCT). Bone recovery rate (%) and calvarial thickness (mm) were calculated with CT Analyser version 1.14.4.1 according to standardized protocols. Hematoxylin and eosin and TRAP staining were performed with 5 μm paraffin sections. The percentage of osteoclast surface and the osteoclast number were calculated with OsteoMeasure XP Version 1.01 (OsteoMetrics) according to standardized protocols. All of the animal procedures were reviewed and approved by the Animal Care Committee of the Institute of Laboratory Animal Resources of Seoul National University.
# human osteogenic cells = assay: Cell attachment assay on coated plates; assay type: cell-based
# Description: as §1
# osteoclasts [7] = assay: Bone resorption assay, BMMs on Osteo Assay Surface plates; assay type: cell-based, mouse; conditions: M-CSF and RANKL, 6 days, 9.1 μg/cm^2
# Src-PYK2 signaling = assay: Immunoblot of c-Src, PYK2 and GTP-bound Rac1; assay type: cell-based, mouse
# [8] = vs vehicle- or SP-treated control
# [9] = calvarial bones, histomorphometric analysis
substance,measurement,setting,value
"RVYFFKGKQYWE-NH2 [VnP-16, RVYFFKGKQYWE (SEQ ID NO: 17)]",cell spreading,osteogenic cells,comparable to vitronectin
same,"levels of phospho-FAK Tyr-407, -576, -577, and -861",FAK; 3 hours,remained at basal levels
same,levels of FAK phosphorylation at Tyr397,"FAK; 3 hours, vs vehicle- or SP-treated control",evidently increased
same,levels of phospho-Akt Ser473 and phospho-PKCδ Thr505,FAK; [8],but not
same,levels of phospho-c-Src Tyr416,FAK; [8],evidently increased
same,cell attachment activity to other types of cells,[1],"only to primary fibroblasts, including normal human dermal fibroblasts (NHDFs) and normal human oral fibroblasts (NHOFs), and to fibroblast-lineage cells, including MC3T3-E1 and NIH/3T3 cells"
same,bone destruction (μCT images and TRAP staining of whole calvariae),"[2]; IL-1 2 μg plus peptide 125 μg, vs IL-1 and SP",significantly lower
same,bone density,"[2]; IL-1 plus peptide, vs SP",certainly prevented the decrease
same,bone volume,"[2]; IL-1 plus peptide, vs SP",certainly prevented the decrease
same,number of TRAP-positive osteoclasts induced by IL-1,[2]; [9],reduced
same,surfaces of TRAP-positive osteoclasts induced by IL-1,[2]; [9],reduced
same,RANKL-induced Erk phosphorylation,[3],neither affected
same,RANKL-induced p38 phosphorylation,[3],neither affected
same,RANKL-stimulated JNK phosphorylation,[3],obviously inhibited
same,basal Janus N-terminal kinase (JNK) levels,[3],did not affect
same,M-CSF and RANKL-induced expressions of c-Fos and NFATc1,"[3]; 9.1 μg/cm^2, 1, 2, or 3 days",suppressed
same,average cell size of M-CSF and RANKL-induced osteoclasts,[4]; 9.1 μg/cm^2,decreased
same,M-CSF and RANKL-induced osteoclastogenesis,"[4]; VnP-16 9.1 μg/cm^2, M-CSF 30 ng/mL, RANKL 100 ng/mL, vs vehicle and SP",almost completely inhibited
same,F-actin mediated cytoskeletal organization in preosteoclasts,"osteoclasts [5]; BMMs with M-CSF and RANKL, 6 days",inhibit
same,F-actin-mediated cytoskeletal organization in mature osteoclasts,"osteoclasts [5]; mature osteoclasts, 1 day",no such effect
same,area of resorption pits,"mature osteoclasts; 12 hours, RANKL and M-CSF",significantly inhibited
same,"area of resorption pits, compared with 12 hours","mature osteoclasts; 24 hours, 9.1 μg/cm^2",similar
same,expression of osteogenic markers,"[6]; rat calvarial sections, qRT-PCR, 2 weeks",significantly increased
same,osteoblast number in newly generated bone,"[6]; rat, Masson's trichrome-stained sections, 2 weeks",significantly increased; also recorded: comparable to the expression level of the (BMP-2)-treated group
same,new bone formation in calvarial defects (μCT images),"[6]; rat, collagen sponge implant, two weeks after surgery",significant bone healing
same,amount of newly generated bone,"[6]; rat, two weeks after surgery, vs BMP-2",comparable with that in the bone morphogenetic protein 2 (BMP-2)-treated group
same,amount of bone regeneration,"[6]; rat, μCT, histomorphometry, Masson's trichrome",greater than those in the vehicle- and SP-treated control groups
same,coating concentration at which cell attachment activity reached a maximum level,"human osteogenic cells; osteogenic cells, dose-response",about 9.1 μg/cm^2
same,cell attachment activity of osteogenic cells,"human osteogenic cells; substrate-coated plates, serum-free medium, 1 hour",significantly promoted
same,bone resorptive activity by osteoclasts (area of resorption pits),osteoclasts [7],inhibits
same,phosphorylations of Src at Tyr416 and PYK2 at Tyr402,Src-PYK2 signaling; BMMs,disturbs
same,level of GTP-bound Rac1,"Src-PYK2 signaling; BMMs, M-CSF- and RANKL-induced osteoclastogenesis",alters
same,phosphorylations of Src at Tyr416 and PYK2 at Tyr402,Src-PYK2 signaling; mature osteoclasts,suppressed
same,phosphorylations of Src at Tyr416 and PYK2 at Tyr402,Src-PYK2 signaling; preosteoclasts,inhibited
same,expression of GTP-bound Rac1,"Src-PYK2 signaling; preosteoclasts, unlike SP",inhibited
